Results on two molecules are retold here after paper PMC7720213, “Structure of eukaryotic DNA polymerase δ bound to the PCNA clamp while encircling DNA” (Proceedings of the National Academy of Sciences of the …, 2020).

Chains of the proteins cited; added tags and fusions are not shown.
UniProt P47110: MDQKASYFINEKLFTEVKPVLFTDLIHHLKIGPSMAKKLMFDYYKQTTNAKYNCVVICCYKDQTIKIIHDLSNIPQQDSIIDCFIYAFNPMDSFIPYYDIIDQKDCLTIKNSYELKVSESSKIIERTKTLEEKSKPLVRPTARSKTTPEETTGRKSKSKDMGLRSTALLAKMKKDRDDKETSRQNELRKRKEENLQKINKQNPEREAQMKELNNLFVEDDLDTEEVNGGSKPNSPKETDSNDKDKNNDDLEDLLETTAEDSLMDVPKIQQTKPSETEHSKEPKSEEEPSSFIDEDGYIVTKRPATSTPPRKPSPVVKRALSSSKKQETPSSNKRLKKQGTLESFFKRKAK

Results are given in words; binding and its absence hold for the method and conditions named. Some entries that bind do so weakly or less than the wild type. For some assays here: Where a sequence is shown, tags or fusion partners need not be part of it.

Assay [1] has as its target T1, GST-Pol31 of the GST-Pol31-Pol32 complex (S. cerevisiae) (UniProt P46957).
T1 sequence: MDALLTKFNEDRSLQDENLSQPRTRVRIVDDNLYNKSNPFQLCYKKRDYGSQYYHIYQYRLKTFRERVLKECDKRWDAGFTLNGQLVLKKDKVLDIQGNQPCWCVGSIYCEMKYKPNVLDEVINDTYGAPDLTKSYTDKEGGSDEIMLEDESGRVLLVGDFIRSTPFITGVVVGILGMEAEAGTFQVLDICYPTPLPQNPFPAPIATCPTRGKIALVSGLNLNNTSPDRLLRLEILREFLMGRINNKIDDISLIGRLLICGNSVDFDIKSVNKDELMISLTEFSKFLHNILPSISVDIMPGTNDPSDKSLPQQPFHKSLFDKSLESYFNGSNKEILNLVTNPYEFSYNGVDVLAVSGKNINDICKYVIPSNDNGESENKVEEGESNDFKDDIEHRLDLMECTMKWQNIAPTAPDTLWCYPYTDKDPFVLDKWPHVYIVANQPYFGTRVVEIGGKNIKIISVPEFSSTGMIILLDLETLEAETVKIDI
The experiment in a line: affinity co-purification; Pol31 and Pol32 co-expressed in E. coli BL21(DE3); GST-Pol31-Pol32 complex purified from the clarified lysate on glutathione-Sepharose 4B.

Assay [2] addresses T2, S.c. proliferating cell nuclear antigen (PCNA) sliding clamp (S. cerevisiae), P15873.
T2 chain: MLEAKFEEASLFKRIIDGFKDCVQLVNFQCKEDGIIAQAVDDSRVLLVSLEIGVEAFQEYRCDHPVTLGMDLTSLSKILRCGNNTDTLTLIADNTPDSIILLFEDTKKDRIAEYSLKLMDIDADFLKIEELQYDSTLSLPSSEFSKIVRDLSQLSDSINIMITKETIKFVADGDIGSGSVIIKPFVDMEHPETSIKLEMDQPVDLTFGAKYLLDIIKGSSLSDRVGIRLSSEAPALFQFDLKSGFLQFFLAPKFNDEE
The experiment in a line: cryo-EM structure; 8.0 uM PCNA and 6.0 uM T/P DNA mixed in Hepes-KOH pH 7.5, DTT, MgAc, KOAc, potassium glutamate, 0.4 mM ddTTP, then 3.3 uM Pol δ added; PCNA:Pol δ:T/P DNA 1.2:1:0.9; on ice 1 h; 3.2 Å map; both purified. Particulars: remark: other sources report otherwise.

For the molecule “Pol32 of the GST-Pol31-Pol32 complex (from UniProt P47110 1-350)”, in assay [1], the binding result was “binds”.

B1: S.c. DNA polymerase δ regulatory subunit Pol31 (natural protein, S. cerevisiae)
chain: MDALLTKFNEDRSLQDENLSQPRTRVRIVDDNLYNKSNPFQLCYKKRDYGSQYYHIYQYRLKTFRERVLKECDKRWDAGFTLNGQLVLKKDKVLDIQGNQPCWCVGSIYCEMKYKPNVLDEVINDTYGAPDLTKSYTDKEGGSDEIMLEDESGRVLLVGDFIRSTPFITGVVVGILGMEAEAGTFQVLDICYPTPLPQNPFPAPIATCPTRGKIALVSGLNLNNTSPDRLLRLEILREFLMGRINNKIDDISLIGRLLICGNSVDFDIKSVNKDELMISLTEFSKFLHNILPSISVDIMPGTNDPSDKSLPQQPFHKSLFDKSLESYFNGSNKEILNLVTNPYEFSYNGVDVLAVSGKNINDICKYVIPSNDNGESENKVEEGESNDFKDDIEHRLDLMECTMKWQNIAPTAPDTLWCYPYTDKDPFVLDKWPHVYIVANQPYFGTRVVEIGGKNIKIISVPEFSSTGMIILLDLETLEAETVKIDI
notes: Pol31 (B subunit), regulatory subunit of Saccharomyces cerevisiae DNA polymerase δ; Stood in the assay as part of the three-subunit Pol δ; also called B subunit
Turning to B1, in assay [2], the binding entry is listed as “no binding”.
